For 4 molecules, binding results are on record in paper PMC5323046.

Chains of the proteins cited; added tags and fusions are not shown.
UniProt P51159: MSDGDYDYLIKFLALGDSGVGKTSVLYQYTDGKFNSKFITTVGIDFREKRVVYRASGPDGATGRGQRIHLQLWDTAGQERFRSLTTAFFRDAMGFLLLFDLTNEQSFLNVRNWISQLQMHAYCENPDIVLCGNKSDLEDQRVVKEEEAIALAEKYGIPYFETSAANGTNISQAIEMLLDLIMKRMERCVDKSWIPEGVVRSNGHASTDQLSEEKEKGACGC
UniProt Q96BY7: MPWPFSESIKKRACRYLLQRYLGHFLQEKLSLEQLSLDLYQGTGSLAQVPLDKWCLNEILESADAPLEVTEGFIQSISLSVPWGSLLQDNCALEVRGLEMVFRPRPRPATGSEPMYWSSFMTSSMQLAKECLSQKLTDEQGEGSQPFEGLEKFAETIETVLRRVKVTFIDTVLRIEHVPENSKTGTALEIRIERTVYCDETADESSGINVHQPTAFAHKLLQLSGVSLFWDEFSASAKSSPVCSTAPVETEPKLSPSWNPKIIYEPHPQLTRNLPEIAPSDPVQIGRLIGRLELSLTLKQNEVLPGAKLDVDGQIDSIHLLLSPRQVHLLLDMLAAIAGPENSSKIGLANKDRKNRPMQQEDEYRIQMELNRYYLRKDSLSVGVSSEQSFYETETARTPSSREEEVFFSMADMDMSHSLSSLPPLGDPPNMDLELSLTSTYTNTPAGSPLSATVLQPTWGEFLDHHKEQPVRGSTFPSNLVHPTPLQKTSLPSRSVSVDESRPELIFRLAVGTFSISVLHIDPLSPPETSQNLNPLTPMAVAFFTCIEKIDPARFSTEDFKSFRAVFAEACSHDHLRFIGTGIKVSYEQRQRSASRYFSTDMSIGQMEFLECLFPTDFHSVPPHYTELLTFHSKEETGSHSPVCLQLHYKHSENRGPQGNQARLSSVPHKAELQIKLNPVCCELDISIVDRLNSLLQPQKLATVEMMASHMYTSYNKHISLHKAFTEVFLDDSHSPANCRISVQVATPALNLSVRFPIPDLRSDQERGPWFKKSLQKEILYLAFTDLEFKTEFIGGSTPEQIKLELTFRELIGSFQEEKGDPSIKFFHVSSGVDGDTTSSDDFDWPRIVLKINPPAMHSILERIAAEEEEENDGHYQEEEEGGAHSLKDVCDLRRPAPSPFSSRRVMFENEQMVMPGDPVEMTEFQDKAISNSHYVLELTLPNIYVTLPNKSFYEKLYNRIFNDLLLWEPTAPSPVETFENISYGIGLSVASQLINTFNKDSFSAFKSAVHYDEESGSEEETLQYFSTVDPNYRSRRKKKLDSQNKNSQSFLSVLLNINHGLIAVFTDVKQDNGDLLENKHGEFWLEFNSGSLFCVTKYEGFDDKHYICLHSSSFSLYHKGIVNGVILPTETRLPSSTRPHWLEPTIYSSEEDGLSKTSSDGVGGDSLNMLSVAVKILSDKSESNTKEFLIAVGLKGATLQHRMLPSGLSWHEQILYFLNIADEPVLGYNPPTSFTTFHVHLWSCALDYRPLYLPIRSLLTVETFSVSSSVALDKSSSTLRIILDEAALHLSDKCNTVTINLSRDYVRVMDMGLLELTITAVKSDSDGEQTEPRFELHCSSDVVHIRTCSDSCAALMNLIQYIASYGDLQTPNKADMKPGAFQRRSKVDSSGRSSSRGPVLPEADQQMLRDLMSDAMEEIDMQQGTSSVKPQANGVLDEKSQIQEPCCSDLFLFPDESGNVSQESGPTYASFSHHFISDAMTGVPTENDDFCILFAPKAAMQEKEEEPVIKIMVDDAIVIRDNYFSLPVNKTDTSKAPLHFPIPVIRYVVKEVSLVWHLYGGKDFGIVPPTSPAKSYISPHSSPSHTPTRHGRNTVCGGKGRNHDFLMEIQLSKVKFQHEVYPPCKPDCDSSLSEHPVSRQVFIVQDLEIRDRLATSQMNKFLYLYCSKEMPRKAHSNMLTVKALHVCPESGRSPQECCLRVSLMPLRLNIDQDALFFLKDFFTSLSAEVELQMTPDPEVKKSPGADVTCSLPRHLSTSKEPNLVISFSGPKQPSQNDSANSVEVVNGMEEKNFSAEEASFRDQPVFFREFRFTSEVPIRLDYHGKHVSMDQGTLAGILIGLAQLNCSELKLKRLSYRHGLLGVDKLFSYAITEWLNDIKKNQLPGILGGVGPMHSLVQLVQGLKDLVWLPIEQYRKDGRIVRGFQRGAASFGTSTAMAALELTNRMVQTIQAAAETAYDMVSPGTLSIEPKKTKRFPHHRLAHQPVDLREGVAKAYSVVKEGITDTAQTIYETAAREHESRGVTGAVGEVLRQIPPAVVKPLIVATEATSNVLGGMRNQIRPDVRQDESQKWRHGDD
UniProt Q8TDY2: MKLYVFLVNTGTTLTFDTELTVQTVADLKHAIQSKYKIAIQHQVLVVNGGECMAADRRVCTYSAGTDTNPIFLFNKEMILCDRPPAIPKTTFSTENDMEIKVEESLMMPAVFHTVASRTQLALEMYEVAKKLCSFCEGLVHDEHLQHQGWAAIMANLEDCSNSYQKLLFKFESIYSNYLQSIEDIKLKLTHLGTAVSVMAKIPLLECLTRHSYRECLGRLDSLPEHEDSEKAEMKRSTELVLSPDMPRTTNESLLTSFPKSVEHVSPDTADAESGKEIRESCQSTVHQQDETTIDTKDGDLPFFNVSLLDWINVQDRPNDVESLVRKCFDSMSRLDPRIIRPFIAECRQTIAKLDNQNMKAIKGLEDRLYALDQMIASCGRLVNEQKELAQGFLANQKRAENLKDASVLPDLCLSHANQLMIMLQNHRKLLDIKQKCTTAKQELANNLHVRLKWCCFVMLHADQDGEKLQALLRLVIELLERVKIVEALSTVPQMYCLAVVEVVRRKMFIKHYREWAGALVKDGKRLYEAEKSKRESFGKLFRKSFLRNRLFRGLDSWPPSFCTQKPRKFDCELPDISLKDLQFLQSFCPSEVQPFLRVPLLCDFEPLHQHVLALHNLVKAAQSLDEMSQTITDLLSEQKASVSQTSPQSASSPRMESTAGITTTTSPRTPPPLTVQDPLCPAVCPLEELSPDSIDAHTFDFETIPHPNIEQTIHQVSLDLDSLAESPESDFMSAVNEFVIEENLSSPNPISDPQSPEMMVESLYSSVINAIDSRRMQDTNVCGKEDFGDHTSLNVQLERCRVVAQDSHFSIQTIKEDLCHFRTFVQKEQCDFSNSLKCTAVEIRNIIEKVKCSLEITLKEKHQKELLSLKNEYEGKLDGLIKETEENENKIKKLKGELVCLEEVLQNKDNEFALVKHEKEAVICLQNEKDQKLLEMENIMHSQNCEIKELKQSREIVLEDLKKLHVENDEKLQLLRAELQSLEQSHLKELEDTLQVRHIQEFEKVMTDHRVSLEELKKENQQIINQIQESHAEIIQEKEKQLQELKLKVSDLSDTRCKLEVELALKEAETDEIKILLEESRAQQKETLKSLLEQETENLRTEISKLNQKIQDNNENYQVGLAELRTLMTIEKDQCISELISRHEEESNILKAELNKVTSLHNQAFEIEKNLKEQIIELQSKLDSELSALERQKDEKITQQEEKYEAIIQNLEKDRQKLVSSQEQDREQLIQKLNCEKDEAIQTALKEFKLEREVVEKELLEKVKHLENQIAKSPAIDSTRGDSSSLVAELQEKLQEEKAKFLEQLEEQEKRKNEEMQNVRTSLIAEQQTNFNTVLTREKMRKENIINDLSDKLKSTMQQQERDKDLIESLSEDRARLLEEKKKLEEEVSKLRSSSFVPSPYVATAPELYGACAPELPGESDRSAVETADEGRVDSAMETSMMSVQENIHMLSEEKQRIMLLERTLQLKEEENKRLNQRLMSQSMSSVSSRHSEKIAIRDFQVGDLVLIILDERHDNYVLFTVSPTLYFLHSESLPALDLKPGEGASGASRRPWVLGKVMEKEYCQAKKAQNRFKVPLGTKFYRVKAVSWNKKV

Results are given in words; binding and its absence hold for the method and conditions named. For some of these results: Binding seen in cells or lysates may run through a third protein. Some entries that bind do so weakly or less than the wild type. For some of these results: Tags and fused reporters may be left off the sequences shown.

The target in assay [1] is HA-tagged RAB27A (Ras-related protein Rab-27A) (human) (UniProt P51159). Description: co-IP; HA-IP (anti-HA-agarose, overnight, 4°C, MCLB buffer) from 293T-REx cells inducibly expressing HA-tagged bait, empty cells (MOCK) as control; SDS-PAGE and immunoblot of endogenous partners; cells untreated, with DMSO or 250 nM Torin1 for 2 hr, or starved with EBSS for 2 hr. (Immunoblotting shows a protein as a band on a membrane.)

In assay [2] the target is T1, HA-tagged full-length SMCR8 (human) (UniProt Q8TEV9).
T1 sequence: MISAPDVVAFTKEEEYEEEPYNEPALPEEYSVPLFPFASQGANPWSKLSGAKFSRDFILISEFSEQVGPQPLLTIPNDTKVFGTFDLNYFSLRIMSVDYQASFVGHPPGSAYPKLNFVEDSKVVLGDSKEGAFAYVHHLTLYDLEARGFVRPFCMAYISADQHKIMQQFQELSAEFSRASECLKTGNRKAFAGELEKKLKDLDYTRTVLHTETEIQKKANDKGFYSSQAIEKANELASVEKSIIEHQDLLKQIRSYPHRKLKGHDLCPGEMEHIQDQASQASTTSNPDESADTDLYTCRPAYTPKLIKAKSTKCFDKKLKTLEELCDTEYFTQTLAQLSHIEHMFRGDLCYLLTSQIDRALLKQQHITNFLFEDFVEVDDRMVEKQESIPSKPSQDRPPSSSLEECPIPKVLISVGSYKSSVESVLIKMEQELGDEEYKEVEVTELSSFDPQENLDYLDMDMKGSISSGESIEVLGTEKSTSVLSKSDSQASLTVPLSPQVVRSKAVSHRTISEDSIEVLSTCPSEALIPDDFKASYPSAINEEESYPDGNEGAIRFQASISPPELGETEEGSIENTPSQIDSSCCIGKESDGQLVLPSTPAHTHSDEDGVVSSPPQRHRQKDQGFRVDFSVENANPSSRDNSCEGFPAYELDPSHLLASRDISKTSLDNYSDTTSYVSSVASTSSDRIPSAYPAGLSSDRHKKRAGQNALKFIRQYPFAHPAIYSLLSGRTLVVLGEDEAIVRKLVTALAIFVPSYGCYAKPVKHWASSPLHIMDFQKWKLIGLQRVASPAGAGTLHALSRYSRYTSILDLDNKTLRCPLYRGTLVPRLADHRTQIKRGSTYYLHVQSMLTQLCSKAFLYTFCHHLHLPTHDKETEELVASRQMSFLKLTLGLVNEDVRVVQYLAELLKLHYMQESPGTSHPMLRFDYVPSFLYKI
Description: native gel or EMSA; HA-IP from 293T-REx cells inducibly expressing HA-tagged SMCR8, C9ORF72, ATG13 or ULK1, elution with HA peptide in PBS, Native PAGE (3-12% Bis-Tris), then immunoblot or in-gel digestion and mass spectrometry. (Mobility shift assays separate free from complexed probe on a gel.)

The target in assay [3] is T2, HA-tagged SMCR8 fragment 701–937 (human) (UniProt Q8TEV9).
T2 sequence: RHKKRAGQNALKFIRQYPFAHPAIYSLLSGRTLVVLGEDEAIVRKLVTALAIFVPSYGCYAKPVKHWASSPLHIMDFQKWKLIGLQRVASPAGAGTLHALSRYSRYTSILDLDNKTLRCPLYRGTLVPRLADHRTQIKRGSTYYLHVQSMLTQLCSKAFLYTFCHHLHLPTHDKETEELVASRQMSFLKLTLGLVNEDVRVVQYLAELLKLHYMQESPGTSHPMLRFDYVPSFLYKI
The assay is described as follows: co-IP; 293T cells transiently transfected with HA-tagged full length SMCR8 or fragments; HA-IP, SDS-PAGE, immunoblot of endogenous partners; blots quantified with ImageJ.

The target of assay [4] is T1, HA-tagged full-length SMCR8 (human). Described as above.
In assay [5] the target is T3, HA-tagged SMCR8 fragment 1–700 (human) (UniProt Q8TEV9).
T3 sequence: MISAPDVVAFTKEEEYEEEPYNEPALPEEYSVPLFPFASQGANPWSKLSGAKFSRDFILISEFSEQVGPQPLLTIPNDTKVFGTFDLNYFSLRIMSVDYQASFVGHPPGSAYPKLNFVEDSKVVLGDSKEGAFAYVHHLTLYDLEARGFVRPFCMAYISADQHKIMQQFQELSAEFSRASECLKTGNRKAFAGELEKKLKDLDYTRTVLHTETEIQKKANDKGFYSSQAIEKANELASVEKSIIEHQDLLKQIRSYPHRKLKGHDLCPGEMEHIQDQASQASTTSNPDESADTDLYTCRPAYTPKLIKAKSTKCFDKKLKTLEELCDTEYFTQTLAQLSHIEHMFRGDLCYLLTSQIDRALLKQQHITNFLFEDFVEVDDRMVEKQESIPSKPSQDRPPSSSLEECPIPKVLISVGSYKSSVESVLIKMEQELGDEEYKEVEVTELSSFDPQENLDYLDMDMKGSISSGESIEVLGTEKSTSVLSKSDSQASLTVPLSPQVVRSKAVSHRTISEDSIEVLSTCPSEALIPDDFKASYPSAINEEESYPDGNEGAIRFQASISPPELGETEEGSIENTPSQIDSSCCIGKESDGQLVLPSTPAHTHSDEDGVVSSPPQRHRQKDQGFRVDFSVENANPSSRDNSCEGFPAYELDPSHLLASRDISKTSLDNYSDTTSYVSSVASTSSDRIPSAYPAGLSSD
The assay is described as above.

Assay [6] deals with T4, HA-tagged C9ORF72 (human) (UniProt Q96LT7).
T4 sequence: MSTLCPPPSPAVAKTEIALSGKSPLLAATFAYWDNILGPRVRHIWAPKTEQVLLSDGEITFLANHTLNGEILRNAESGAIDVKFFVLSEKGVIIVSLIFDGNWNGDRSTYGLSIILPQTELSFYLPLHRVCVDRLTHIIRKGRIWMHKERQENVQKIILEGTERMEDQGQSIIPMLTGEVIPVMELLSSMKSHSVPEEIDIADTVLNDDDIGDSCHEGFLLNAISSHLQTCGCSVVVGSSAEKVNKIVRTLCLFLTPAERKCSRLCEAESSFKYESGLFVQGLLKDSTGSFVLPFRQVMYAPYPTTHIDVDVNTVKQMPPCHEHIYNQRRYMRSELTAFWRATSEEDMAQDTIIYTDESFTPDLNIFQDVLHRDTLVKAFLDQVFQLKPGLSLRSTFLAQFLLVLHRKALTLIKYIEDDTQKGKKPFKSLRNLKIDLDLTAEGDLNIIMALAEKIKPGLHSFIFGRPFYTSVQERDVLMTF
Description: co-IP; as a2, HA-C9ORF72 IP from fed (not starved) 293T-REx cells.

Assay [7] deals with T5, endogenous SMCR8 (human (endogenous in 293T)) (UniProt Q8TEV9).
T5 sequence: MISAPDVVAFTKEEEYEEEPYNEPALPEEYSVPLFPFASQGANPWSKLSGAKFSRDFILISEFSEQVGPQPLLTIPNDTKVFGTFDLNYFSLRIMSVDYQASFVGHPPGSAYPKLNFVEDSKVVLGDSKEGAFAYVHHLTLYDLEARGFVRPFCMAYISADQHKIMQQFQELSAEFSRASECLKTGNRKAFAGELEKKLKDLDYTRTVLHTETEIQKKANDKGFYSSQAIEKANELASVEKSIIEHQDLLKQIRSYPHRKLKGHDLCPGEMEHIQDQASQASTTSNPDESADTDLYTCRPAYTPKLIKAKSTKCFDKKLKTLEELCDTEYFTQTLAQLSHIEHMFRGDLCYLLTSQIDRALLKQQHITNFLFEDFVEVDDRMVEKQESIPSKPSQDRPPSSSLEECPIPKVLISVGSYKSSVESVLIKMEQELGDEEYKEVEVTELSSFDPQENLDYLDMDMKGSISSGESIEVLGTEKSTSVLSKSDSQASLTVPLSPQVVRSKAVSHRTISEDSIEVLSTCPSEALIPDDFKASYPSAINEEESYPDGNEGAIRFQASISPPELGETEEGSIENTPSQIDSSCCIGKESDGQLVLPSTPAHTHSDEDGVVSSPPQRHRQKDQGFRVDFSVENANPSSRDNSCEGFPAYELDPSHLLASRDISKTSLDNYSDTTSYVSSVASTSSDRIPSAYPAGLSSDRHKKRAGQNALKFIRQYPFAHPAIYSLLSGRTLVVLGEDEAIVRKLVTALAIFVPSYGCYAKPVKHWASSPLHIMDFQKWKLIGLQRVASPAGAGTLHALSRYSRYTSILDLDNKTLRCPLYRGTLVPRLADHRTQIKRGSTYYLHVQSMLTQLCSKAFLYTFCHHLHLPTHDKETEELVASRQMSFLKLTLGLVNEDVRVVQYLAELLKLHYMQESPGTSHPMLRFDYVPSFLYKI
The assay is described as follows: SEC; whole cell lysates of 293T cells (freeze-thaw cycles, 50 mM TRIS pH 7.5, 150 mM NaCl) on Superose 6 10/300 GL; fractions by SDS-PAGE and immunoblot. (In general: SEC sorts molecules by how far they enter the pores of the column.)

The target of assay [8] is T4, HA-tagged C9ORF72 (human). The assay is described as follows: co-IP; HA-IP (anti-HA-agarose, overnight, 4°C, MCLB buffer) from 293T-REx cells inducibly expressing HA-tagged bait, empty cells (MOCK) as control; SDS-PAGE and immunoblot of endogenous partners; cells untreated, with DMSO or 250 nM Torin1 for 2 hr, or starved with EBSS for 2 hr.
Assay [9] deals with T1, HA-tagged full-length SMCR8 (human). Described as above.
For assay [10], the target named is T5, endogenous SMCR8 (human (endogenous in 293T)). Description: co-IP; endogenous IP with anti-SMCR8 (anti-IgG as control) from 293T lysate (MCLB), cells with sicon or SMCR8 siRNA for 72 hr; DMSO or 250 nM Torin1 for 2 hr; immunoblot.

With ATG2B (from UniProt Q96BY7 1-2078), the binding result in [1] was “binds”.

For the molecule “endogenous FIP200/RB1CC1 (focal adhesion kinase interacting protein of 200 kDa/RB1 inducible coiled-coil1) (from UniProt Q8TDY2 1-1594)”, the binding result in [2] is “binds”; in assay [3], “no binding”; in assay [4], “binds”; in assay [5], “binds”; in assay [6], “binds weakly”; in [7] it was “binds”. Also, the binding entry in assay [8], in assay [9] and in assay [10] was “binds” each time.

B1: endogenous WDR41 (protein, UniProt Q9HAD4 1-459)
chain: MLRWLIGGGREPQGLAEKSPLQTIGEEQTQNPYTELLVLKAHHDIVRFLVQLDDYRFASAGDDGIVVVWNAQTGEKLLELNGHTQKITAIITFPSLESCEEKNQLILTASADRTVIVWDGDTTRQVQRISCFQSTVKCLTVLQRLDVWLSGGNDLCVWNRKLDLLCKTSHLSDTGISALVEIPKNCVVAAVGKELIIFRLVAPTEGSLEWDILEVKRLLDHQDNILSLINVNDLSFVTGSHVGELIIWDALDWTMQAYERNFWDPSPQLDTQQEIKLCQKSNDISIHHFTCDEENVFAAVGRGLYVYSLQMKRVIACQKTAHDSNVLHVARLPNRQLISCSEDGSVRIWELREKQQLAAEPVPTGFFNMWGFGRVSKQASQPVKKQQENATSCSLELIGDLIGHSSSVEMFLYFEDHGLVTCSADHLIILWKNGERESGLRSLRLFQKLEENGDLYLAV
Regarding B1, the binding entry in [2] and in [7] was “binds” each time.

B2: VMP1 (protein, UniProt Q96GC9 1-406)
chain: MAENGKNCDQRRVAMNKEHHNGNFTDPSSVNEKKRREREERQNIVLWRQPLITLQYFSLEILVILKEWTSKLWHRQSIVVSFLLLLAVLIATYYVEGVHQQYVQRIEKQFLLYAYWIGLGILSSVGLGTGLHTFLLYLGPHIASVTLAAYECNSVNFPEPPYPDQIICPDEEGTEGTISLWSIISKVRIEACMWGIGTAIGELPPYFMARAARLSGAEPDDEEYQEFEEMLEHAESAQDFASRAKLAVQKLVQKVGFFGILACASIPNPLFDLAGITCGHFLVPFWTFFGATLIGKAIIKMHIQKIFVIITFSKHIVEQMVAFIGAVPGIGPSLQKPFQEYLEAQRQKLHHKSEMGTPQGENWLSWMFEKLVVVMVCYFILSIINSMAQSYAKRIQQRLNSEEKTK
Turning to B2, the binding entry in [1] is recorded as “binds”.
